Z-score and AC50 data for 40 molecules are collected here from PubChem BioAssay (NCATS).

This is one part of the list. Shown are side measurements of this screen, not its main read-out; they come without a call. Compounds called inactive in the main read-out are mostly missing here. Potencies come from curve fits of mixed quality, noted in brackets.

The nature of the first test: qHTS for identification of novel therapeutic agents for treatment of microphthalmiaassociated transcription factor (MiT) renal cell carcinoma (RCC) (AID 1963991). As to conditions: TFE3-RCC UOK109 viability, CellTiter-Glo, 48 h; measured here: UOK109 Z-AUC; stronger effect = lower value. An outline of the steps:
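Three TFE3-fusion RCC lines (UOK109, UOK124, UOK145), 500 cells/well in complete medium, were treated with MIPE 4.0 compounds for 48 hours at 37 C. Viability was by CellTiter-Glo luminescence, normalized to DMSO (100%) and empty wells (0%); curves fitted over 11 concentrations.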
As for `CC(C)(Cc1ccc2ccccc2c1)NC[C@@H](O)COc1cccc(Cl)c1C#N`, the z-score turned out to be 0.848. Still for that read-out and setting: next, `COc1cc([C@@H]2c3cc4c(cc3[C@H](O)[C@H]3COC(=O)[C@H]23)OCO4)cc(OC)c1OC`: -2.58; `CC(O)(C#Cc1ccc2c(c1)N(c1nc(N)ncc1Cl)CC2)c1nccs1` (stereo not given): -0.0442. For `O=c1cc(-c2cccc3c2Sc2ccccc2S3)oc(N2CCOCC2)c1`, the z-score is 0.302. Same read-out and setting: next, `O=C(NC[C@H](O)CO)c1ccncc1Nc1ccc(I)cc1F`: -1.31. Consider `CCCC1OC2C[C@@H]3[C@H]4CCC5=CC(=O)C=C[C@]5(C)[C@H]4C(O)C[C@]3(C)[C@]2(C(=O)CO)O1` (stereo not given in full), for which the z-score came to 0.639.

Still in this test, the particulars now being: TFE3-RCC viability, CellTiter-Glo, 48 h; measured here: UOK124 Z-AUC; stronger effect = lower value.
In turn, `COc1cccc([C@@H](C)NCCCc2ccccc2Cl)c1` showed a z-score of 0.195. Still for that read-out and setting: next, `Cc1cn(-c2cc(NC(=O)c3ccc(C)c(Nc4nccc(-c5cccnc5)n4)c3)cc(C(F)(F)F)c2)cn1`: -1.01; `CN(C)C(=O)c1ccc(S(=O)(=O)c2ccc(NC(=O)[C@@](C)(O)C(F)(F)F)c(Cl)c2)cc1`: -0.852; `O=C(N[C@@H](c1ccccc1)[C@@H]1CCCCN1)c1cccc(C(F)(F)F)c1Cl`: 0.764. `O=C(O)c1ccc(Nc2ncc3c(n2)-c2ccc(Cl)cc2C(c2c(F)cccc2F)=NC3)cc1`: the z-score was 0.229. With `CC(=O)Nc1nc(C)c(-c2ccc(Cl)c(S(=O)(=O)NCCO)c2)s1`, the z-score was -0.545.

`CN1c2ccccc2C(=O)N2CCc3c([nH]c4ccccc34)C21` (stereo not given) had a z-score of 0.602. The molecule `NC(=O)c1ccc(-c2nc(-c3ccc4c(c3)OCCO4)c(-c3ccccn3)[nH]2)cc1` came in with a z-score of 0.293. For `N#CC(c1ccc(Cl)cc1)c1c(Cl)cc(-n2ncc(=O)[nH]c2=O)cc1Cl` (stereo not given), the z-score came out at 0.446. Same read-out and setting: next, `COc1cc(F)c(F)c(Nc2ccc(I)cc2F)c1NS(=O)(=O)C1(C[C@H](O)CO)CC1`: 0.202; `CCc1cc(Nc2nccc(-c3c(-c4ccc(OC)c(C(=O)Nc5c(F)cccc5F)c4)nc4ccccn34)n2)c(OC)cc1N1CCC(N2CCN(S(C)(=O)=O)CC2)CC1`: 0.271; `COc1cc(Oc2ccnc3cc(OC)c(OC)cc23)ccc1NC(=O)NC(C)c1nccs1` (stereo not given): -1.87. Still for that read-out and setting: under `NS(=O)(=O)c1ccc(NC2=CC(=O)c3ccccc3C2=O)cc1` stands -0.64; under `Cc1ccc(C2=Nc3ccc(Cl)cc3OC2)cc1`, 0.186. In turn, `CCn1c(-c2nonc2N)nc2cnc(Oc3cccc(NC(=O)c4ccc(OCCN5CCOCC5)cc4)c3)cc21` yielded a z-score of 0.0485. Still for that read-out and setting: next, `CC(C)(Cc1ccc2ccccc2c1)NC[C@@H](O)COc1cccc(Cl)c1C#N`: 0.912.

The molecule `COc1cc([C@@H]2c3cc4c(cc3[C@H](O)[C@H]3COC(=O)[C@H]23)OCO4)cc(OC)c1OC` came in with a z-score of -3.38. The molecule `CC(O)(C#Cc1ccc2c(c1)N(c1nc(N)ncc1Cl)CC2)c1nccs1` (stereo not given) registered a z-score of 0.838. `O=c1cc(-c2cccc3c2Sc2ccccc2S3)oc(N2CCOCC2)c1` came in with a z-score of -0.174. Same read-out and setting: under `O=C(NC[C@H](O)CO)c1ccncc1Nc1ccc(I)cc1F` stands -0.211; under `CCCC1OC2C[C@@H]3[C@H]4CCC5=CC(=O)C=C[C@]5(C)[C@H]4C(O)C[C@]3(C)[C@]2(C(=O)CO)O1` (stereo not given in full), 0.619.

Still in this test, the particulars now being: TFE3-RCC viability, CellTiter-Glo, 48 h; measured here: UOK124 cell viability.
What is called AC50 is the concentration giving half of the maximal activity seen. In the case of `Cc1cn(-c2cc(NC(=O)c3ccc(C)c(Nc4nccc(-c5cccnc5)n4)c3)cc(C(F)(F)F)c2)cn1`, the AC50 is 7430 nM [falling, partial curve].

Take `CN(C)C(=O)c1ccc(S(=O)(=O)c2ccc(NC(=O)[C@@](C)(O)C(F)(F)F)c(Cl)c2)cc1`: the AC50 is 93.5 nM [falling, partial curve, poor fit]. Same read-out and setting: next, `CC(C)(O)c1cc2nc(-c3cnc(N)nc3)nc(N3CCOCC3)c2s1`: 264 nM [falling, full curve]. Regarding `CC(C)C[C@H](NC(=O)CNC(=O)c1cc(Cl)ccc1Cl)B1OC(=O)CC(CC(=O)O)(C(=O)O)O1` (stereo not given in full), the AC50 was 1870 nM [falling, full curve]. Still for that read-out and setting: next, `Nc1cc(C(F)(F)F)c(-c2cc(N3CCOCC3)nc(N3CCOCC3)n2)cn1`: 1320 nM [falling, full curve]; `Cn1cc(CNCC2CCN(c3ncc(C(=O)NO)cn3)CC2)c2ccccc21`: 148 nM [falling, full curve].

Turning to `COc1ccc(C=Cc2cc(OC)c(OC)c(OC)c2)cc1NC(=O)[C@H](N)CO`, the concentration at half-maximal activity (AC50) was 3.32 nM [falling, full curve].

On to `O=C1c2ccccc2-[n+]2ccc3c([nH]c4ccccc43)c21`, for which the AC50 was 935 nM [falling, full curve]. Regarding `Cc1ccc(C(=O)N(CCCN)[C@@H](c2oc3cc(Cl)ccc3c(=O)c2Cc2ccccc2)C(C)C)cc1`, the AC50 was 6620 nM [falling, full curve]. Same read-out and setting: under `CCc1cc(Nc2nccc(-c3c(-c4ccc(OC)c(C(=O)Nc5c(F)cccc5F)c4)nc4ccccn34)n2)c(OC)cc1N1CCC(N2CCN(S(C)(=O)=O)CC2)CC1` stands 37200 nM [falling, partial curve, poor fit]. Still for that read-out and setting: next, `Cc1cc(Nc2ncc3c(n2)N(C)C(=O)N(c2cc(NC(=O)c4cccc(C(F)(F)F)c4)ccc2C)C3)n(C)n1`: 526 nM [falling, full curve]; `COc1c(OCCCN2CCOCC2)ccc2c3n(c(=NC(=O)c4cnc(N)nc4)nc12)CCN3`: 7240 nM [falling, partial curve, poor fit].

For `CC(C)c1cnn2c(NCc3ccccc3)cc(N[C@@H](CO)[C@H](O)CO)nc12`, the concentration at half-maximal activity (AC50) was 264 nM [falling, full curve]. The same measure, in the same setting: under `NS(=O)(=O)c1ccc(NC2=CC(=O)c3ccccc3C2=O)cc1` stands 743 nM [falling, full curve]; under `CCC[C@H](Nc1nc(-c2ccc(NC(=O)NCC)c(OC)c2)ncc1C)c1cccnc1`, 5.9 nM [falling, full curve]; under `Oc1cccc(-c2nc(N3CCOCC3)c3oc4ncccc4c3n2)c1`, 540 nM [falling, full curve]. On to `c1ccc2c(-c3cnn4cc(-c5ccc(N6CCNCC6)cc5)cnc34)ccnc2c1`, for which the AC50 is 2640 nM [falling, full curve]. On to `COc1cc([C@@H]2c3cc4c(cc3[C@H](O)[C@H]3COC(=O)[C@@H]23)OCO4)cc(OC)c1OC`, for which the AC50 was 166 nM [falling, full curve]. Still for that read-out and setting: under `CC(C)n1nc(-c2ccc3oc(N)nc3c2)c2c(N)ncnc21` stands 132 nM [falling, full curve]; under `CC(C)C[C@H](NC(=O)[C@H](CCc1ccccc1)NC(=O)CN1CCOCC1)C(=O)N[C@@H](Cc1ccccc1)C(=O)N[C@@H](CC(C)C)C(=O)[C@@]1(C)CO1`, 209 nM [falling, full curve]. The same measure, in the same setting: under `CC(C)[C@H](C(=O)Nc1ccc(C(=O)NO)cc1)c1ccccc1` stands 2960 nM [falling, full curve].

As for `Cn1c2ccccc2c2c3c(c4c5ccccc5n(CCC#N)c4c21)CNC3=O`, the AC50 was 11800 nM [falling, partial curve]. Take `NC(=O)Nc1cc(-c2cccc(F)c2)sc1C(=O)N[C@H]1CCCNC1`: the AC50 was 526 nM [falling, full curve].
